Consider 1 molecule from the supplement of paper PMC8728848.

Assay in all cases: glycan array binding signal (z-score within array); higher = stronger binding
Holding throughout (settings): glycan notation: IUPAC condensed, linker removed

For test [1], the target named is Gal(b1-4)GlcNAc(b1-2)[Gal(b1-4)GlcNAc(b1-4)]Man(a1-3)[Gal(b1-4)GlcNAc(b1-2)Man(a1-6)]Man(b1-4)GlcNAc(b1-4)GlcNAc. In short, it runs like this: (§1)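 Columns mapping to the same glycan were averaged after glycan names were converted to IUPAC-condensed notation. The data come from 3228 arrays in the Consortium for Functional Glycomics database, limited to those with an available protein sequence. Binding is reported as a within-array Z-score averaged across arrays of one protein sequence and across linkers.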

In test [2] the target is Gal(b1-4)GlcNAc(b1-2)[Gal(b1-4)GlcNAc(b1-4)]Man(a1-3)[Gal(b1-4)GlcNAc(b1-2)[Gal(b1-4)GlcNAc(b1-6)]Man(a1-6)]Man(b1-4)GlcNAc(b1-4)GlcNAc. In short, it runs like this:
as §1

Test [3] deals with Gal(b1-4)GlcNAc(b1-2)[Gal(b1-4)GlcNAc(b1-4)]Man(a1-3)[GlcNAc(b1-4)][Gal(b1-4)GlcNAc(b1-2)Man(a1-6)]Man(b1-4)GlcNAc(b1-4)GlcNAc. In outline:
as §1

Test [4] addresses Gal(b1-4)GlcNAc(b1-2)[Gal(b1-4)GlcNAc(b1-4)]Man(a1-3)[GlcNAc(b1-4)][Gal(b1-4)GlcNAc(b1-2)[Gal(b1-4)GlcNAc(b1-6)]Man(a1-6)]Man(b1-4)GlcNAc(b1-4)GlcNAc. In short, it runs like this:
as §1

For test [5], the target named is Gal(b1-4)GlcNAc(b1-2)[Gal(b1-4)GlcNAc(b1-6)]Man(a1-6)[Gal(b1-4)GlcNAc(b1-2)Man(a1-3)]Man(b1-4)GlcNAc(b1-4)GlcNAc. In outline: as §1
For test [6], the target named is Gal(b1-4)GlcNAc(b1-2)[Gal(b1-4)GlcNAc(b1-6)]Man(a1-6)[Gal(b1-4)GlcNAc(b1-2)Man(a1-3)]Man(b1-4)GlcNAc(b1-4)[Fuc(a1-6)]GlcNAc. In short, it runs like this: as §1
Test [7] has as its target Gal(b1-4)GlcNAc(b1-2)[Gal(b1-4)GlcNAc(b1-6)]Man(a1-6)[GlcNAc(b1-4)][Gal(b1-4)GlcNAc(b1-2)Man(a1-3)]Man(b1-4)GlcNAc(b1-4)GlcNAc. In outline:
as §1

Test [8] has as its target Gal(b1-4)GlcNAc(b1-2)[Gal(b1-4)GlcNAc(b1-6)]Man(a1-6)[GlcNAc(b1-4)][Gal(b1-4)GlcNAc(b1-2)[Gal(b1-4)GlcNAc(b1-4)]Man(a1-3)]Man(b1-4)GlcNAc(b1-4)[Fuc(a1-6)]GlcNAc. In short, it runs like this:
as §1

Test [9] concerns the target Gal(b1-4)GlcNAc(b1-3)Gal(b1-3)GalNAc. In outline: as §1
Test [10] has as its target Gal(b1-4)GlcNAc(b1-3)Gal(b1-3)GlcNAc. In short, it runs like this:
as §1

Test [11] addresses Gal(b1-4)GlcNAc(b1-3)Gal(b1-4)Glc. In outline: as §1
The target of test [12] is Gal(b1-4)GlcNAc(b1-3)Gal(b1-4)GlcNAc. In short, it runs like this:
as §1

The target of test [13] is Gal(b1-4)GlcNAc(b1-3)Gal(b1-4)GlcNAc(b1-2)Man(a1-3)[Gal(b1-4)GlcNAc(b1-3)Gal(b1-4)GlcNAc(b1-2)Man(a1-6)]Man(b1-4)GlcNAc(b1-4)GlcNAc. In short, it runs like this: as §1
The target of test [14] is Gal(b1-4)GlcNAc(b1-3)Gal(b1-4)GlcNAc(b1-2)Man(a1-3)[Gal(b1-4)GlcNAc(b1-3)Gal(b1-4)GlcNAc(b1-2)Man(a1-6)]Man(b1-4)GlcNAc(b1-4)[Fuc(a1-6)]GlcNAc. In short, it runs like this: as §1
Test [15] deals with Gal(b1-4)GlcNAc(b1-3)Gal(b1-4)GlcNAc(b1-2)[Gal(b1-4)GlcNAc(b1-3)Gal(b1-4)GlcNAc(b1-6)]Man(a1-6)[Gal(b1-4)GlcNAc(b1-3)Gal(b1-4)GlcNAc(b1-2)Man(a1-3)]Man(b1-4)GlcNAc(b1-4)GlcNAc. In outline: as §1
Test [16] has as its target Gal(b1-4)GlcNAc(b1-3)Gal(b1-4)GlcNAc(b1-2)[Gal(b1-4)GlcNAc(b1-3)Gal(b1-4)GlcNAc(b1-6)]Man(a1-6)[Gal(b1-4)GlcNAc(b1-3)Gal(b1-4)GlcNAc(b1-2)Man(a1-3)]Man(b1-4)GlcNAc(b1-4)[Fuc(a1-6)]GlcNAc. In short, it runs like this: as §1
Test [17] concerns the target Gal(b1-4)GlcNAc(b1-3)Gal(b1-4)GlcNAc(b1-3)Gal(b1-4)GlcNAc. In outline: as §1
Test [18] has as its target Gal(b1-4)GlcNAc(b1-3)Gal(b1-4)GlcNAc(b1-3)Gal(b1-4)GlcNAc(b1-2)Man(a1-3)[Gal(b1-4)GlcNAc(b1-3)Gal(b1-4)GlcNAc(b1-3)Gal(b1-4)GlcNAc(b1-2)Man(a1-6)]Man(b1-4)GlcNAc(b1-4)GlcNAc. In outline:
as §1

Test [19] deals with Gal(b1-4)GlcNAc(b1-3)Gal(b1-4)GlcNAc(b1-3)Gal(b1-4)GlcNAc(b1-2)Man(a1-3)[Gal(b1-4)GlcNAc(b1-3)Gal(b1-4)GlcNAc(b1-3)Gal(b1-4)GlcNAc(b1-2)Man(a1-6)]Man(b1-4)GlcNAc(b1-4)[Fuc(a1-6)]GlcNAc. In short, it runs like this: as §1
Test [20] concerns the target Gal(b1-4)GlcNAc(b1-3)Gal(b1-4)GlcNAc(b1-3)Gal(b1-4)GlcNAc(b1-2)[Gal(b1-4)GlcNAc(b1-3)Gal(b1-4)GlcNAc(b1-3)Gal(b1-4)GlcNAc(b1-6)]Man(a1-6)[Gal(b1-4)GlcNAc(b1-3)Gal(b1-4)GlcNAc(b1-3)Gal(b1-4)GlcNAc(b1-2)Man(a1-3)]Man(b1-4)GlcNAc(b1-4)[Fuc(a1-6)]GlcNAc. In outline:
as §1

In test [21] the target is Gal(b1-4)GlcNAc(b1-3)Gal(b1-4)GlcNAc(b1-3)Gal(b1-4)GlcNAc(b1-3)Gal(b1-4)GlcNAc(b1-2)Man(a1-3)[Gal(b1-4)GlcNAc(b1-3)Gal(b1-4)GlcNAc(b1-3)Gal(b1-4)GlcNAc(b1-3)Gal(b1-4)GlcNAc(b1-2)Man(a1-6)]Man(b1-4)GlcNAc(b1-4)GlcNAc. In short, it runs like this: as §1
Test [22] addresses Gal(b1-4)GlcNAc(b1-3)Gal(b1-4)GlcNAc(b1-3)Gal(b1-4)GlcNAc(b1-3)Gal(b1-4)GlcNAc(b1-2)Man(a1-3)[Gal(b1-4)GlcNAc(b1-3)Gal(b1-4)GlcNAc(b1-3)Gal(b1-4)GlcNAc(b1-3)Gal(b1-4)GlcNAc(b1-2)Man(a1-6)]Man(b1-4)GlcNAc(b1-4)[Fuc(a1-6)]GlcNAc. In outline: as §1

Some of the results follow.

B1: Pbx1CASH domain (Cryptococcus neoformans) (protein)
chain: MDETKPLWGNPRADGISLACKDSIVERNVVYDATDGAIVLFGSAGSTVKNNHVYARTRVILGGINLVDYEPWDGDYTNVKVHHNHLYALGRYFKVGIVIGPASWSDDTESVVHSASVTDNEFSGGYWGYGIVVASAKNFEVLRNKVIWDGEQGVARFSGVPGS
Turning to B1, the “glycan array binding signal (z-score)” value in [1] is -0.846; in test [2] it was -0.024; in test [3], 0.488; in test [4], 0.939; in test [5], 0.543; in [6], -0.218. Besides, the “glycan array binding signal (z-score)” value is 0.234 in test [7]; 0.375 in test [8]; 0.935 in [9]; -0.387 in test [10]; 0.559 in [11]; -0.081 in test [12]. The “glycan array binding signal (z-score)” value in test [13] was found to be 5.46; in test [14], 1.12; in test [15], 2.22; in test [16], 1.57; in [17], 0.478; in test [18] it was 3.17. Further, the “glycan array binding signal (z-score)” value in test [19] was 1; in test [20], 1.03; in [21], -0.377; in test [22] it was 0.544.
